# Assay results reported in the supplement of paper PMC8612539.
# The source gives many values for each of these; only a part stands here.
# Test system: Escherichia coli
# Experiment: minimum inhibitory concentration (MIC)
# Method: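 Broth microdilution MIC (Sensititre BOPO7F bovine plate, CLSI methods) of 19 antimicrobials against field isolates of P. multocida, M. haemolytica, H. somni (deep nasopharyngeal swabs) and E. coli, Enterococcus spp. (rectal swabs) from weaned dairy heifers. Incubation 16-24 h at 35 C. MIC is the lowest concentration preventing visible growth. Values with <= or > lie at the tested range limits. Trimethoprim-sulfamethoxazole is given as the trimethoprim component of a 1:19 mixture.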
smiles,measurement,setting,value
CC[C@H]1OC(=O)C[C@@H](O)[C@H](C)[C@@H](O[C@@H]2O[C@H](C)[C@@H](O)[C@H](N(C)C)[C@H]2O)[C@@H](CCN2CCCCC2)C[C@@H](C)C(=O)/C=C/C(C)=C/[C@@H]1CN1CCCCC1 [Tildipirosin],minimum inhibitory concentration,isolate (source animal id): 221,4 µg/mL
same,minimum inhibitory concentration,isolate (source animal id): 222,4 µg/mL
same,minimum inhibitory concentration,isolate (source animal id): 223,4 µg/mL
same,minimum inhibitory concentration,isolate (source animal id): 224,4 µg/mL
same,minimum inhibitory concentration,isolate (source animal id): 225,8 µg/mL
same,minimum inhibitory concentration,isolate (source animal id): 226,4 µg/mL
same,minimum inhibitory concentration,isolate (source animal id): 227,2 µg/mL
same,minimum inhibitory concentration,isolate (source animal id): 228,2 µg/mL
same,minimum inhibitory concentration,isolate (source animal id): 229,8 µg/mL
same,minimum inhibitory concentration,isolate (source animal id): 230,4 µg/mL
same,minimum inhibitory concentration,isolate (source animal id): 231,8 µg/mL
same,minimum inhibitory concentration,isolate (source animal id): 232,8 µg/mL
same,minimum inhibitory concentration,isolate (source animal id): 233,2 µg/mL
same,minimum inhibitory concentration,isolate (source animal id): 234,4 µg/mL
same,minimum inhibitory concentration,isolate (source animal id): 235,4 µg/mL
same,minimum inhibitory concentration,isolate (source animal id): 236,4 µg/mL
same,minimum inhibitory concentration,isolate (source animal id): 237,4 µg/mL
same,minimum inhibitory concentration,isolate (source animal id): 238,4 µg/mL
same,minimum inhibitory concentration,isolate (source animal id): 239,2 µg/mL
same,minimum inhibitory concentration,isolate (source animal id): 240,4 µg/mL
same,minimum inhibitory concentration,isolate (source animal id): 241,4 µg/mL
same,minimum inhibitory concentration,isolate (source animal id): 242,4 µg/mL
same,minimum inhibitory concentration,isolate (source animal id): 243,4 µg/mL
same,minimum inhibitory concentration,isolate (source animal id): 244,8 µg/mL
same,minimum inhibitory concentration,isolate (source animal id): 245,4 µg/mL
same,minimum inhibitory concentration,isolate (source animal id): 246,8 µg/mL
same,minimum inhibitory concentration,isolate (source animal id): 247,2 µg/mL
same,minimum inhibitory concentration,isolate (source animal id): 248,4 µg/mL
same,minimum inhibitory concentration,isolate (source animal id): 249,4 µg/mL
same,minimum inhibitory concentration,isolate (source animal id): 250,4 µg/mL
same,minimum inhibitory concentration,isolate (source animal id): 251,4 µg/mL
same,minimum inhibitory concentration,isolate (source animal id): 252,4 µg/mL
same,minimum inhibitory concentration,isolate (source animal id): 253,4 µg/mL
same,minimum inhibitory concentration,isolate (source animal id): 254,4 µg/mL
same,minimum inhibitory concentration,isolate (source animal id): 255,4 µg/mL
same,minimum inhibitory concentration,isolate (source animal id): 256,8 µg/mL
same,minimum inhibitory concentration,isolate (source animal id): 257,4 µg/mL
same,minimum inhibitory concentration,isolate (source animal id): 258,4 µg/mL
same,minimum inhibitory concentration,isolate (source animal id): 259,4 µg/mL
same,minimum inhibitory concentration,isolate (source animal id): 260,8 µg/mL
same,minimum inhibitory concentration,isolate (source animal id): 261,4 µg/mL
same,minimum inhibitory concentration,isolate (source animal id): 262,4 µg/mL
same,minimum inhibitory concentration,isolate (source animal id): 263,4 µg/mL
same,minimum inhibitory concentration,isolate (source animal id): 264,8 µg/mL
same,minimum inhibitory concentration,isolate (source animal id): 265,8 µg/mL
same,minimum inhibitory concentration,isolate (source animal id): 266,2 µg/mL
same,minimum inhibitory concentration,isolate (source animal id): 267,2 µg/mL
same,minimum inhibitory concentration,isolate (source animal id): 268,4 µg/mL
same,minimum inhibitory concentration,isolate (source animal id): 269,4 µg/mL
same,minimum inhibitory concentration,isolate (source animal id): 270,8 µg/mL
same,minimum inhibitory concentration,isolate (source animal id): 271,2 µg/mL
same,minimum inhibitory concentration,isolate (source animal id): 272,4 µg/mL
same,minimum inhibitory concentration,isolate (source animal id): 273,4 µg/mL
same,minimum inhibitory concentration,isolate (source animal id): 274,4 µg/mL
same,minimum inhibitory concentration,isolate (source animal id): 275,2 µg/mL
same,minimum inhibitory concentration,isolate (source animal id): 276,8 µg/mL
same,minimum inhibitory concentration,isolate (source animal id): 277,4 µg/mL
same,minimum inhibitory concentration,isolate (source animal id): 278,8 µg/mL
same,minimum inhibitory concentration,isolate (source animal id): 279,8 µg/mL
same,minimum inhibitory concentration,isolate (source animal id): 280,8 µg/mL
same,minimum inhibitory concentration,isolate (source animal id): 281,4 µg/mL
same,minimum inhibitory concentration,isolate (source animal id): 282,4 µg/mL
same,minimum inhibitory concentration,isolate (source animal id): 283,4 µg/mL
same,minimum inhibitory concentration,isolate (source animal id): 284,4 µg/mL
same,minimum inhibitory concentration,isolate (source animal id): 285,2 µg/mL
same,minimum inhibitory concentration,isolate (source animal id): 286,8 µg/mL
same,minimum inhibitory concentration,isolate (source animal id): 287,4 µg/mL
same,minimum inhibitory concentration,isolate (source animal id): 288,4 µg/mL
same,minimum inhibitory concentration,isolate (source animal id): 289,4 µg/mL
same,minimum inhibitory concentration,isolate (source animal id): 290,4 µg/mL
same,minimum inhibitory concentration,isolate (source animal id): 291,4 µg/mL
same,minimum inhibitory concentration,isolate (source animal id): 292,4 µg/mL
same,minimum inhibitory concentration,isolate (source animal id): 293,4 µg/mL
same,minimum inhibitory concentration,isolate (source animal id): 294,≤ 1 µg/mL
same,minimum inhibitory concentration,isolate (source animal id): 295,4 µg/mL
same,minimum inhibitory concentration,isolate (source animal id): 296,4 µg/mL
same,minimum inhibitory concentration,isolate (source animal id): 297,2 µg/mL
same,minimum inhibitory concentration,isolate (source animal id): 298,4 µg/mL
same,minimum inhibitory concentration,isolate (source animal id): 299,4 µg/mL
same,minimum inhibitory concentration,isolate (source animal id): 300,2 µg/mL
same,minimum inhibitory concentration,isolate (source animal id): 301,4 µg/mL
same,minimum inhibitory concentration,isolate (source animal id): 302,4 µg/mL
same,minimum inhibitory concentration,isolate (source animal id): 303,8 µg/mL
same,minimum inhibitory concentration,isolate (source animal id): 304,4 µg/mL
same,minimum inhibitory concentration,isolate (source animal id): 305,4 µg/mL
same,minimum inhibitory concentration,isolate (source animal id): 306,4 µg/mL
same,minimum inhibitory concentration,isolate (source animal id): 307,4 µg/mL
same,minimum inhibitory concentration,isolate (source animal id): 308,4 µg/mL
same,minimum inhibitory concentration,isolate (source animal id): 309,4 µg/mL
same,minimum inhibitory concentration,isolate (source animal id): 310,4 µg/mL
same,minimum inhibitory concentration,isolate (source animal id): 311,4 µg/mL
same,minimum inhibitory concentration,isolate (source animal id): 312,2 µg/mL
same,minimum inhibitory concentration,isolate (source animal id): 313,4 µg/mL
same,minimum inhibitory concentration,isolate (source animal id): 314,4 µg/mL
same,minimum inhibitory concentration,isolate (source animal id): 315,8 µg/mL
same,minimum inhibitory concentration,isolate (source animal id): 316,4 µg/mL
same,minimum inhibitory concentration,isolate (source animal id): 317,2 µg/mL
same,minimum inhibitory concentration,isolate (source animal id): 318,2 µg/mL
same,minimum inhibitory concentration,isolate (source animal id): 319,4 µg/mL
same,minimum inhibitory concentration,isolate (source animal id): 320,8 µg/mL
same,minimum inhibitory concentration,isolate (source animal id): 321,2 µg/mL
same,minimum inhibitory concentration,isolate (source animal id): 322,4 µg/mL
same,minimum inhibitory concentration,isolate (source animal id): 323,4 µg/mL
same,minimum inhibitory concentration,isolate (source animal id): 324,4 µg/mL
same,minimum inhibitory concentration,isolate (source animal id): 325,4 µg/mL
same,minimum inhibitory concentration,isolate (source animal id): 326,2 µg/mL
same,minimum inhibitory concentration,isolate (source animal id): 327,2 µg/mL
same,minimum inhibitory concentration,isolate (source animal id): 328,8 µg/mL
same,minimum inhibitory concentration,isolate (source animal id): 329,4 µg/mL
same,minimum inhibitory concentration,isolate (source animal id): 330,4 µg/mL
same,minimum inhibitory concentration,isolate (source animal id): 331,4 µg/mL
same,minimum inhibitory concentration,isolate (source animal id): 332,4 µg/mL
same,minimum inhibitory concentration,isolate (source animal id): 333,4 µg/mL
same,minimum inhibitory concentration,isolate (source animal id): 334,4 µg/mL
same,minimum inhibitory concentration,isolate (source animal id): 335,4 µg/mL
same,minimum inhibitory concentration,isolate (source animal id): 336,8 µg/mL
same,minimum inhibitory concentration,isolate (source animal id): 337,4 µg/mL
same,minimum inhibitory concentration,isolate (source animal id): 338,4 µg/mL
same,minimum inhibitory concentration,isolate (source animal id): 339,4 µg/mL
same,minimum inhibitory concentration,isolate (source animal id): 340,4 µg/mL
same,minimum inhibitory concentration,isolate (source animal id): 341,4 µg/mL
